These are yes or no findings as the source states them, for the method shown. In cells and extracts the contact can be indirect. Some binding calls cover weakened binding; strength is not graded here.
Columns and labels:
[1] = biological target: T1, B-cell receptor associated protein 31 (BAP31) (human (endogenous in U2OS and normal human fibroblasts)) (UniProt P51572); assay: co-IP; endogenous proteins of U2OS cells; cells cross-linked with 1 mM DSP before lysis; antibody covalently immobilised on protein A/G plus-agarose; western blotting; also with or without BFA (1 µg/mL, 12 h)
T1 sequence: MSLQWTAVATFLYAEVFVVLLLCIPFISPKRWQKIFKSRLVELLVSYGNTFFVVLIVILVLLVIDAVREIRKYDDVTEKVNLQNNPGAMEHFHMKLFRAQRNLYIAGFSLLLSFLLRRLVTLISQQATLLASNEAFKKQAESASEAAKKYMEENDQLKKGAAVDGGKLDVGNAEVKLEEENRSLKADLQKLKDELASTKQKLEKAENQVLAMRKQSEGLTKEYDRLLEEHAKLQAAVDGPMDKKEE

Protein sequences, listed by entry. Tags and fused reporters are not part of them.
UniProt Q6ZNE5: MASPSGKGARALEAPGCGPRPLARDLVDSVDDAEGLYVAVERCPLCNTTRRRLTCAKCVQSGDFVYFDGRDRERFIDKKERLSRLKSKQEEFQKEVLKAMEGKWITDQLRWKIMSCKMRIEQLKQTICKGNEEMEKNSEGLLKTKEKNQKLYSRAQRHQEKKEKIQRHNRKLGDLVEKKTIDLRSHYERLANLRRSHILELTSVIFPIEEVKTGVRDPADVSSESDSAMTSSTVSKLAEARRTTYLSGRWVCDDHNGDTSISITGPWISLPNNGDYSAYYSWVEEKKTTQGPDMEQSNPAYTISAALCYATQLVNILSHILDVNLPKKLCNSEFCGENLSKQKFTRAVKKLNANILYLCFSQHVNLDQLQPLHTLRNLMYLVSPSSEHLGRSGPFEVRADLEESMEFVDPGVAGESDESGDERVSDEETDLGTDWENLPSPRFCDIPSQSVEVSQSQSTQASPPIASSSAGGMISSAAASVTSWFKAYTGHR
UniProt O94817: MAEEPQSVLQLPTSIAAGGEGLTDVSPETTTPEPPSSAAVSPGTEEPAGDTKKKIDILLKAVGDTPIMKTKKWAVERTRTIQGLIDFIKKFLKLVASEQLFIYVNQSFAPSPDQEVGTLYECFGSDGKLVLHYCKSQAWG
UniProt Q14457: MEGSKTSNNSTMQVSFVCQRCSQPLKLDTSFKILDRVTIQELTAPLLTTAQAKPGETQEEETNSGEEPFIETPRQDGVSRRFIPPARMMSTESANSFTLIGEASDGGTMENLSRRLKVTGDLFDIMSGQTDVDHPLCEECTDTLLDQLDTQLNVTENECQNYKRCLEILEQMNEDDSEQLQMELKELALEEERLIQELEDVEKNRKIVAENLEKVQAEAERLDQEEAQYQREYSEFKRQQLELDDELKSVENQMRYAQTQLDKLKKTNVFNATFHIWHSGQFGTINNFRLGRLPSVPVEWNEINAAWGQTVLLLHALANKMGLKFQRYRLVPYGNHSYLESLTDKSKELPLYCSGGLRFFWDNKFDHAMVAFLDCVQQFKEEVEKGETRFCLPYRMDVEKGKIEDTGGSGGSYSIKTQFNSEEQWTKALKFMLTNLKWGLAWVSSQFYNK
UniProt P56962: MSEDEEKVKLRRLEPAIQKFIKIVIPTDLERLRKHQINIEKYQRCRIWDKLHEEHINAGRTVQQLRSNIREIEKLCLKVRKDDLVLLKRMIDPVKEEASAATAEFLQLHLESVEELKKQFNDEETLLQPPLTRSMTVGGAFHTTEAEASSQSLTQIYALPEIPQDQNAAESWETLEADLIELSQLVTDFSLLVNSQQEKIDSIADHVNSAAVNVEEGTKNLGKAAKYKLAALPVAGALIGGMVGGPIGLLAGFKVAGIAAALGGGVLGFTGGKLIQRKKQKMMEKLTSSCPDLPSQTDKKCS

[2] = biological target: T1, B-cell receptor associated protein 31 (BAP31) (human (endogenous in U2OS and normal human fibroblasts)); assay: co-IP; endogenous proteins of normal human fibroblast cells (Figure S6)
HA-ATG14L [3] = biological target: HA-ATG14L (UniProt Q6ZNE5); assay: co-IP; U2OS cells transfected with HA-ATG14L; siBAP31 (24 h), BFA (1 µg/mL, 8 h) or starvation; cell lysates, western blotting
[4] = biological target: T1, B-cell receptor associated protein 31 (BAP31) (human (endogenous in U2OS and normal human fibroblasts)); assay: proximity ligation; DuoLink in fixed U2OS cells with antibodies to BAP31 and STX17; with or without BFA (1 µg/mL, 12 h); confocal imaging
[5] = biological target: autophagy related protein 14L (ATG14L) (human (endogenous in U2OS)) (UniProt Q6ZNE5); assay: proximity ligation; DuoLink in fixed U2OS cells, endogenous STX17 and ATG14L; siControl or siBAP31 (24 h), with or without BFA (1 µg/mL, 8 h); confocal imaging
HA-ATG14L [6] = biological target: HA-ATG14L (UniProt Q6ZNE5); assay: condition: only normal conditions (no BAP31 knockdown, ER stress or starvation); co-IP; U2OS cells transfected with HA-ATG14L; normal conditions (siControl, no BFA, no starvation); cell lysates, western blotting

binding [1] | binding [2] | binding (HA-ATG14L [3]) | binding [4] | binding [5] | binding (HA-ATG14L [6]) | Substance
no binding | – | – | – | – | – | ATG12 (from UniProt O94817 1-140)
no binding | – | – | – | – | – | Beclin1 (from UniProt Q14457 1-450)
no binding | – | – | – | – | – | autophagy related protein 14L (ATG14L) (from UniProt Q6ZNE5 1-492)
binds | binds | binds | binds | binds | no binding | syntaxin 17 (STX17) (from UniProt P56962 1-302)

From article PMC6912744
